According to patent publication CN114805568A:
Numbering of substitutions follows the chain as printed. These are yes or no findings as the source states them, for the method shown. Some results given as binding are weak or reduced against the parent protein; the word gives no strength.

Protein sequences, listed by entry. Tags and fused reporters are not part of them. Lines headed by an entry give the natural chain unless they say otherwise; changes in a name come on top.
UniProt Q8N423: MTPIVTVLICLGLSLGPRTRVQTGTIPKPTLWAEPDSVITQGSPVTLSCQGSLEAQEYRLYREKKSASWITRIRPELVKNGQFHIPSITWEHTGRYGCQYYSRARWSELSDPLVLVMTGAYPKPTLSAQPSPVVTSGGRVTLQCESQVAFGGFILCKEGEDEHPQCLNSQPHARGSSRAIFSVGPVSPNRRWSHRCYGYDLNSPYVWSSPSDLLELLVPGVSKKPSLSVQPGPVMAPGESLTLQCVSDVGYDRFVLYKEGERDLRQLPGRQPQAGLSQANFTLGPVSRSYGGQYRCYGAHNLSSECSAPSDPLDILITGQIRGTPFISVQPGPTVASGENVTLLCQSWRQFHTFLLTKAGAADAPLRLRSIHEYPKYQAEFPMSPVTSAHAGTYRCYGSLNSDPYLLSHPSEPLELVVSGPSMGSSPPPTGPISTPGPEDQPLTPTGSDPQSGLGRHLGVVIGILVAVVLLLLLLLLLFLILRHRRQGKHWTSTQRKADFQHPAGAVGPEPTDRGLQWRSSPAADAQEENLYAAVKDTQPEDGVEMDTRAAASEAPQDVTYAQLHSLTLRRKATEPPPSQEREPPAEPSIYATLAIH

B1: A3 (VHH)
VHH: QVQLQESGGGLVQAGGSLTLSCAVSGISFGTRAMAWFRQAPGKEREGVASIQADTYISYADSVKGRFTISKDSGKNTLNLQMNNLKPEDTAVYYCAVGDLWGSHLQPHGYNYWGQGTQVTVSS
B2: G3 (VHH)
VHH: QVQLQESGGGSVQAGGSLRLSCAASGYPRSSVCMGWYRQAPGKEREGVAAIFTGGGRPYYADSVKGRFTISQDNAVNTVSLQMNNLKPEDTAMYYCAAELTYCSGGPWTDPVGYWGQGTQVTVSS
B3: A7 (VHH)
VHH: QVQLQESGGGSVQPGGRLRLSCETSGYTSSRNWMGWFRQAPGKEREGVASIYTDNGSAYYADSVKGRFTISVDNAKNTVYLQMNSLKPEDTAMYYCAGRIRPPAGTRWPGPLVESAYNTWGRGTQVTVSS
B4: B9 (VHH)
VHH: QVQLQESGGGSVQAGGSLRLSCAASGYTDSRYCMGWFRQVPGKEREKVATIYNGDGNTYYDDSVKGRFTISQGNAKNTLFLEMNNLKPEDTAMYYCAAIKAYGSNWCPAVEYSDWGQGTQVTVSS
B5: C7 (VHH)
VHH: B4 VHH with S11L, G26E, G35A, T50I, G73S, N74V, F80Y, E82Q, A92G, P108R
B6: JTX-8064 (antibody, V domains shown)
VH: QITLKESGPTLVKPTQTLTLTCTFSGFSLNTYAMGVSWIRQPPGKALEWLASIWWNGNKYNNPSLKSRLTVTKDTSKNQVVLTMTNMDPVDTATYYCAHSRIIRFTDYVMDAWGQGTLVTVSS
VL: DIQMTQSPSSLSTSVGDRVTITCRASEDIYNDLAWYQQKPGKAPKLLIYNANSLHTGVASRFSGSGSGTDFTFTISSLQPEDVATYFCQQYYDYPLTFGQGTKLEIK
B7: E5 (VHH)
VHH: B2 VHH with A23V, R57T, A61G, N85D, A98V

Assays:
[1] = molecular target: Biotinylated-LILRB2(Acro,Cat.LI2-H82F5) (human) (UniProt Q8N423); test: phage display, liquid-phase panning and identification
[2] = molecular target: 人LILRB2重组蛋白(KN表达) (human) (UniProt Q8N423); test: ELISA, coated human LILRB2, antibody at 10 ug/ml

Binder | binding [1] | binding [2]
B1 | binds | –
B2 | binds | –
B3 | binds | –
B4 | binds | –
B5 | binds | –
B6 | – | binds
B7 | binds | –
